Assay results taken from paper PMC5496739.
These are yes or no findings as the source states them, for the method shown. In cells and extracts the contact can be indirect. For part of these data: Binding can be weak; no strength is given.

The chains behind the UniProt entries cited, without tags or fusion partners. Where a name states a change or a piece, a line headed by the entry shows the natural chain unless it says otherwise.
UniProt Q80U40: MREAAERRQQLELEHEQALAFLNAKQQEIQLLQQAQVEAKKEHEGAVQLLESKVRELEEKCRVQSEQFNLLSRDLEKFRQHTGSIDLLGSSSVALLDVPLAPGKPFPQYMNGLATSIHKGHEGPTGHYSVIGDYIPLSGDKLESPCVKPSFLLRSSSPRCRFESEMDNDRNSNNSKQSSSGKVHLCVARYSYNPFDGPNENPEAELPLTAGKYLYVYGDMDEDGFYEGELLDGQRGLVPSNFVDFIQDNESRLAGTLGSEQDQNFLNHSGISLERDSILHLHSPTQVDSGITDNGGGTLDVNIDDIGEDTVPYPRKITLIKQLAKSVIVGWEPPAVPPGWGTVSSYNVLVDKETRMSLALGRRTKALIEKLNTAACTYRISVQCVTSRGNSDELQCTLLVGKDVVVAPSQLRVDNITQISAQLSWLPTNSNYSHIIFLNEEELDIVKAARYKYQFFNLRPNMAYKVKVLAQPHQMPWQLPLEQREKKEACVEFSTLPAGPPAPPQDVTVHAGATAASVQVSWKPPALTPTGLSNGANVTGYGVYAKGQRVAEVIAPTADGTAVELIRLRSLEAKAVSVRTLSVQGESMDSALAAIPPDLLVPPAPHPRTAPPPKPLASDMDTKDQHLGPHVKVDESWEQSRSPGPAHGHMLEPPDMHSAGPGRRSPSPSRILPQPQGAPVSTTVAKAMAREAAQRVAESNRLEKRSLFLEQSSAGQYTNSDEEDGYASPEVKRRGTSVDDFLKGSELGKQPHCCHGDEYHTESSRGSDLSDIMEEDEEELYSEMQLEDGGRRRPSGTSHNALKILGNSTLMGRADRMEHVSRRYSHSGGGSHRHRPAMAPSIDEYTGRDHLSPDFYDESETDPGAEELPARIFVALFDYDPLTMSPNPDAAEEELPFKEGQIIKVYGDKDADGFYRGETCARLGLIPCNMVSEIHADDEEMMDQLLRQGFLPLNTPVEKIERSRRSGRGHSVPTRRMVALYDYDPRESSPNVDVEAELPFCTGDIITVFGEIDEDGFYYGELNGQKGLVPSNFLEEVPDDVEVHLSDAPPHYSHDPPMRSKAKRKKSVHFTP

T1: exophilin-8 (wild type) expressed in HEK293A cells (mouse) (UniProt Q8K3I4)
T1 sequence: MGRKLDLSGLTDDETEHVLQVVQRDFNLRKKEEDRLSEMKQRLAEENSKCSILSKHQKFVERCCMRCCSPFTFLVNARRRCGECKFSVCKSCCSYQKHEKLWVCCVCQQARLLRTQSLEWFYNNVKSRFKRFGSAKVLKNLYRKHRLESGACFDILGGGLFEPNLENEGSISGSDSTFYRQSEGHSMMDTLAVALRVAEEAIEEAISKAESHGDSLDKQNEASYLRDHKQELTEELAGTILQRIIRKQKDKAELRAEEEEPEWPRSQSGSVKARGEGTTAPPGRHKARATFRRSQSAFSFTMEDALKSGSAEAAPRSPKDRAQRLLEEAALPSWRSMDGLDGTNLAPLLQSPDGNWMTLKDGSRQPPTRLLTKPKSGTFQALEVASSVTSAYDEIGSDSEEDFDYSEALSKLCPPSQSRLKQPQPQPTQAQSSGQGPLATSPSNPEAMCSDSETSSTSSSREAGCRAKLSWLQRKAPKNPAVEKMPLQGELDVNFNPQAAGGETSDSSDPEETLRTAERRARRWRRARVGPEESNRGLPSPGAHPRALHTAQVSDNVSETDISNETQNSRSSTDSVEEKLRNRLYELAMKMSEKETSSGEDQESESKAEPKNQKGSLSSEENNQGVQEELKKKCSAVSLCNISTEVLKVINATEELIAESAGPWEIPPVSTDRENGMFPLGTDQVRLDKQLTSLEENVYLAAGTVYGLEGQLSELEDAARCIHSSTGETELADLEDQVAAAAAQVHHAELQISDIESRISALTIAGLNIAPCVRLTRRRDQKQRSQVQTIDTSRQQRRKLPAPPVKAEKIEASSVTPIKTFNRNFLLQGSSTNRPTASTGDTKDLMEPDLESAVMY


Columns and labels:
[1] = molecular target: T1, exophilin-8 (wild type) expressed in HEK293A cells (mouse); experiment: co-IP; HEK293A cells transfected with plasmids for RIM-BP2, exophilin-8 and their deletion or point mutants; immunoprecipitates with anti-FLAG or anti-HA antibodies blotted with anti-FLAG, anti-GFP and anti-HA
[2] = molecular target: MEF-RIM-BP2ΔSH3 (mouse) (UniProt Q80U40); experiment: co-IP; INS-1 832/13 cells infected with adenovirus encoding GFP, MEF-RIM-BP2 or MEF-RIM-BP2ΔSH3; anti-FLAG immunoprecipitates blotted with anti-exophilin-8 and anti-myosin-VIIa

| binding [1] | binding [2] | Molecule |
| --- | --- | --- |
| binds |  | RIM-BP2 first SH3 domain (from UniProt Q80U40) (domain or fragment) |
| binds |  | RIM-BP2 third SH3 domain (from UniProt Q80U40) (domain or fragment) |
|  | no binding | exophilin-8, endogenous in INS-1 832/13 cells (protein, UniProt Q7TNY7 1-856) MGRKLDLSGLTDDETEHVLQVVQRDFNLRKKEEDRLSEMKQRLAEENSKCSILSKHQKFVERCCMRCCSPFTFLVNARRRCGECKFSVCKSCCSYQKHEKLWVCCVCQQARLLRTQSLEWFYNNVKTRFKRFGSAKVLKNLYKKHRLESGACFDILGGGLYEPNLENEGSISGSDSTFYRQSEGHSMMDTLAVALQVAEEAIEEAISKAESQRDSLDKQNEASYLRDHRQELAEELAGTILQRIIRKQKDKADLHAEEEEPECTRPQSSGVKARGEGTAAPPGRHKARAALWRSQSAFSFTTEDTLKTSSAEAAPRQPKDRAQRLLEESALPSWRSMDGLDGKNLVPLLQSPDGNWMTLKDSSRQPPTRLLAKPKSRTFQALEVASSVASAYDELGSDSEEDFDYSEALSKLRPPSQGRLKQPQPQPAQAQSSGQGPLATSPSNPEAMCSDSETSSTSSSREAGCRAKLLWLQRKAPKNPSAEKTHLQGELDVNFNPQAAGGETSDSSDPEETLHTADRRARRWRRARVGPEESNRGLPSPSAYPPALHTAQVSDNVSETDISNEAQNSRSSTDSAEEKLRNRLYELAMKMSEKETSSGEDQESESKTEPKNQKGSLSSEENNQGVQEELKKKCSAVSLCNISTEVLKVINATEELIAESAGPWEIPPVSTDRDNGMFPLGTDQRSLDKQLTSLEENVYLAAGTVYGLEGQLSELEDAARCIHSSTGETELADLEDQVAAAAAQVHHAELQISDIESRISALTIAGLNIAPCVRLTRRRDQKQRSQVQTIDTSRQQRRKLPAPPVKAEKIEASSVTPIKTFNRNFLLQGSSTNRPTASTSNTKDLMEPVLESAVMY |
